According to paper doi:10.1101/679100:
Results are given in words; binding and its absence hold for the method and conditions named. Binding seen in cells or lysates may run through a third protein. Some entries that bind do so weakly or less than the wild type.

Protein sequences, listed by entry. Tags and fused reporters are not part of them.
UniProt Q8IB67: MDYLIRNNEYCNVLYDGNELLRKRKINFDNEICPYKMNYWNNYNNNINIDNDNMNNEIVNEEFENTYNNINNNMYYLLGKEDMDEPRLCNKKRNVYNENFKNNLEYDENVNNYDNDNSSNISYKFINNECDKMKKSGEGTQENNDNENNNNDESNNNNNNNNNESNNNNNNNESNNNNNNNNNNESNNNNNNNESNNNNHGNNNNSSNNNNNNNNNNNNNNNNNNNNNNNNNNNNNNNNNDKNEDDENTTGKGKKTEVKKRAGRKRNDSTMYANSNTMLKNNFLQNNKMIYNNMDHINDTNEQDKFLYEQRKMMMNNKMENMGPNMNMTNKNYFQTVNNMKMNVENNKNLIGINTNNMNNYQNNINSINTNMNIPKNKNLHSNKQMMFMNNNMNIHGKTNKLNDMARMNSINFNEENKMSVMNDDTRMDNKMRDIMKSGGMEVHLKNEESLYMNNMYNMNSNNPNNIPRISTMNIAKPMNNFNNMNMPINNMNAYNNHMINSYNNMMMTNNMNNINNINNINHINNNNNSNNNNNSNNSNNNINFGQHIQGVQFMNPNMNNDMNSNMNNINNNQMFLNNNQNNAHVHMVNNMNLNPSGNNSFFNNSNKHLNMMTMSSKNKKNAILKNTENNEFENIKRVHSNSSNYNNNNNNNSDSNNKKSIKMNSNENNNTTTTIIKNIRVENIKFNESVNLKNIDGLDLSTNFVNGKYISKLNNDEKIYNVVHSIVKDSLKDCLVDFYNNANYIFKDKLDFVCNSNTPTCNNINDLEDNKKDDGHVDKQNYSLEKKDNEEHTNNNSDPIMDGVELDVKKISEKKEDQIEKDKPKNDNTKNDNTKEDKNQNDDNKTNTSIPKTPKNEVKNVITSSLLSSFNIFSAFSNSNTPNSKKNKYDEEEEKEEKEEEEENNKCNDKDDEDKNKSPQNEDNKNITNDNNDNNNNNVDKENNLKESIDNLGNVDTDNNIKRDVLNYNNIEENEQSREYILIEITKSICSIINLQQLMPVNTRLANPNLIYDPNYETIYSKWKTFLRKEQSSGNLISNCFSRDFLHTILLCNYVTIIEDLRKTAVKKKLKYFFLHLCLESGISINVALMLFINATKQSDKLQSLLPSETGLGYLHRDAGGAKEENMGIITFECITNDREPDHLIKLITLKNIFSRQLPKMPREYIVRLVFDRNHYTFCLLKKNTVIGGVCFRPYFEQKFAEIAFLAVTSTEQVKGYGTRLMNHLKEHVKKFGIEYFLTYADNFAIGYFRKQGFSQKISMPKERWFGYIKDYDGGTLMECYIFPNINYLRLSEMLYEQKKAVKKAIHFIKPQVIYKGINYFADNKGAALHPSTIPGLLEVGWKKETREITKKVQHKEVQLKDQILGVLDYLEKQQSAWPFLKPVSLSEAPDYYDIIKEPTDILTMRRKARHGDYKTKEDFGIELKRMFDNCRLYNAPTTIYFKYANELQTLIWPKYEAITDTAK

Biological target: PfGCN5 (P. falciparum (endogenous in strain 3D7 parasites)) (UniProt Q8IB67)
Assay: co-IP

B1: PfAlba3 (protein, UniProt Q8IJX8 1-107)
chain: MASTEEVSQERSENSIQVSMTKKPTFYARIGKRMFTGNEEKNPFDEVIITGLGNATKIAIGAASIMEKEDIGQIVKVQTAYFSSDRINRRIPKITIVLKKHPDFVAN
binding: binds
